According to the supplement of paper PMC10849652:
The other results are listed elsewhere or left out.

Sequences of proteins named here, by UniProt entry; tags and fusion partners are left off. A change or cut given only in a name is not applied to a line headed by its entry.
UniProt Q8N8R3: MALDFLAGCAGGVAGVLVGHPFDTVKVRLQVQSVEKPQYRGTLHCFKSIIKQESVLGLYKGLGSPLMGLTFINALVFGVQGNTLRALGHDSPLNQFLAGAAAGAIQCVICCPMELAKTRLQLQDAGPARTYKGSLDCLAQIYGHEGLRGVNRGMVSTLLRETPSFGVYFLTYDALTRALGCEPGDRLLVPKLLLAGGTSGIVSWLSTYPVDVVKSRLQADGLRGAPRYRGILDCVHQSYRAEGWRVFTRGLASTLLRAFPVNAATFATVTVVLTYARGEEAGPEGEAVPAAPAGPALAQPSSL
UniProt P43003, whole entry, looked up: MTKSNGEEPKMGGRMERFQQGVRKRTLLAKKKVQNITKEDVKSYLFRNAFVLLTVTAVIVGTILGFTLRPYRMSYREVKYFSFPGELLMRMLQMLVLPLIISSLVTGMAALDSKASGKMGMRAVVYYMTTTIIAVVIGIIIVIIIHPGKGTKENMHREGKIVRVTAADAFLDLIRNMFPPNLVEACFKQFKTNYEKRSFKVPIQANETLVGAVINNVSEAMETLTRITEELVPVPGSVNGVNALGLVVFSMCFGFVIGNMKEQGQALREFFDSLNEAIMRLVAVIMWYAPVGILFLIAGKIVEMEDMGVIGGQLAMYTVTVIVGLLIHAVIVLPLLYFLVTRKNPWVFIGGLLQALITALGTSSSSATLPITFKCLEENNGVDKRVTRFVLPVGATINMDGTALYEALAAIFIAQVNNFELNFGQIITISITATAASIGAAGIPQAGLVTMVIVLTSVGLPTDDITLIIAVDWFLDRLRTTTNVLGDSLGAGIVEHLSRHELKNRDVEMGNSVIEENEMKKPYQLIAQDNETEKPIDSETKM
UniProt Q2M3R5: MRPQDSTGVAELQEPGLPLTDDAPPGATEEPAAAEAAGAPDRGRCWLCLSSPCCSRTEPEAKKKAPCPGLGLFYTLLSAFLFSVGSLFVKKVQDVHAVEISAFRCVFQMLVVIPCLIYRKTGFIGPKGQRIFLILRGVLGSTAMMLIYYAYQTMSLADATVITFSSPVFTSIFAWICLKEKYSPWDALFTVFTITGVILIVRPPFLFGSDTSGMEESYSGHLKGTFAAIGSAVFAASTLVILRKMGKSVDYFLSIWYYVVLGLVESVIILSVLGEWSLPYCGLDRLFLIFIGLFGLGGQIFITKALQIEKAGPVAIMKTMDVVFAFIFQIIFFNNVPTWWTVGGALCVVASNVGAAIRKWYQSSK
UniProt Q8N755: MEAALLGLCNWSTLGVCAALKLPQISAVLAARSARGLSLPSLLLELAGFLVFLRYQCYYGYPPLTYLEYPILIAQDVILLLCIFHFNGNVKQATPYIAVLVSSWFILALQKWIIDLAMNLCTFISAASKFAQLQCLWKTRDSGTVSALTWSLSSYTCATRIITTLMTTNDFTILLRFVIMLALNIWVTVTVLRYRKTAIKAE
UniProt Q9H015: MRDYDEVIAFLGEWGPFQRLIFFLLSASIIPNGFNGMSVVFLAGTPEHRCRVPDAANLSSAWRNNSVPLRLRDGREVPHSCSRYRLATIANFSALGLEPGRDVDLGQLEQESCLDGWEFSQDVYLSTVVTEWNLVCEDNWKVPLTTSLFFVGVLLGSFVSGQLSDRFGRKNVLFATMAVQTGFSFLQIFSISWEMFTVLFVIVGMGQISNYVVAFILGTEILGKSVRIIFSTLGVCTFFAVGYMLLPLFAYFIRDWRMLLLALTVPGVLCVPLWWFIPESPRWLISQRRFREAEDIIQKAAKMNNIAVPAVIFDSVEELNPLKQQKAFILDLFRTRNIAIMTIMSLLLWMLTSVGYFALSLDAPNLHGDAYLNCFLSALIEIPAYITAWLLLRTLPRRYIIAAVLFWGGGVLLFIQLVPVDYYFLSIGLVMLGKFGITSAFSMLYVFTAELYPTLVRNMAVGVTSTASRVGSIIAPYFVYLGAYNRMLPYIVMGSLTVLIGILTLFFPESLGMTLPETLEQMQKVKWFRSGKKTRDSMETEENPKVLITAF
UniProt Q9BS91: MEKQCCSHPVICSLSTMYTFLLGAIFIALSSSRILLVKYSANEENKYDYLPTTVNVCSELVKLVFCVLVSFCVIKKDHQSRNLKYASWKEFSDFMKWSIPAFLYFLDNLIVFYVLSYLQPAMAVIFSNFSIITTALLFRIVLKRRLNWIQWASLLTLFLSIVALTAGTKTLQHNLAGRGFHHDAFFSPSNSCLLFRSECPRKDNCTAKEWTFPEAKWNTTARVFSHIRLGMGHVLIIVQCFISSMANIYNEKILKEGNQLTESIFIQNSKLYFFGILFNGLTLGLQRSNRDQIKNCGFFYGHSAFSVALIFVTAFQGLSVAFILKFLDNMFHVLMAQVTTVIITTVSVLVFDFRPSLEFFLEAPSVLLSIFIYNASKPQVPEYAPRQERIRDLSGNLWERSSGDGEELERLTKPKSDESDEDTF
UniProt Q9NQQ7: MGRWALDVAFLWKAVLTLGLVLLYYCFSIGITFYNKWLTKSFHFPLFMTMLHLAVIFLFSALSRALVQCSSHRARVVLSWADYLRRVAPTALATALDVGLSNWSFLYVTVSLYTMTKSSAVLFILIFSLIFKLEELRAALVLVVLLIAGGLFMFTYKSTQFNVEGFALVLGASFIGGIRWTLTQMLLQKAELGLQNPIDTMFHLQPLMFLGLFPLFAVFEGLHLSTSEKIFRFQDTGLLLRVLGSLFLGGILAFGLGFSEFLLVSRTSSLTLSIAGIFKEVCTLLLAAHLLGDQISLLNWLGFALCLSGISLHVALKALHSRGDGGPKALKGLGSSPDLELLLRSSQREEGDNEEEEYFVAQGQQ
UniProt Q9NUM3: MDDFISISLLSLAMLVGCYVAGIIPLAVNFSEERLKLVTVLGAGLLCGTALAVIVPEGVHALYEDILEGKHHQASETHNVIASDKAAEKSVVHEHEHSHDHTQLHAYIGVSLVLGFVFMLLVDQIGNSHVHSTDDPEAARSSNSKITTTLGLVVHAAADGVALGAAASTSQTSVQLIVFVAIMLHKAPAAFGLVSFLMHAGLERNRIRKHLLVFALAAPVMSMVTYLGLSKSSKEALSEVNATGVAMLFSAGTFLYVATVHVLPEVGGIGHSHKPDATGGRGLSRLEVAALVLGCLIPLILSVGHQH
UniProt P48751: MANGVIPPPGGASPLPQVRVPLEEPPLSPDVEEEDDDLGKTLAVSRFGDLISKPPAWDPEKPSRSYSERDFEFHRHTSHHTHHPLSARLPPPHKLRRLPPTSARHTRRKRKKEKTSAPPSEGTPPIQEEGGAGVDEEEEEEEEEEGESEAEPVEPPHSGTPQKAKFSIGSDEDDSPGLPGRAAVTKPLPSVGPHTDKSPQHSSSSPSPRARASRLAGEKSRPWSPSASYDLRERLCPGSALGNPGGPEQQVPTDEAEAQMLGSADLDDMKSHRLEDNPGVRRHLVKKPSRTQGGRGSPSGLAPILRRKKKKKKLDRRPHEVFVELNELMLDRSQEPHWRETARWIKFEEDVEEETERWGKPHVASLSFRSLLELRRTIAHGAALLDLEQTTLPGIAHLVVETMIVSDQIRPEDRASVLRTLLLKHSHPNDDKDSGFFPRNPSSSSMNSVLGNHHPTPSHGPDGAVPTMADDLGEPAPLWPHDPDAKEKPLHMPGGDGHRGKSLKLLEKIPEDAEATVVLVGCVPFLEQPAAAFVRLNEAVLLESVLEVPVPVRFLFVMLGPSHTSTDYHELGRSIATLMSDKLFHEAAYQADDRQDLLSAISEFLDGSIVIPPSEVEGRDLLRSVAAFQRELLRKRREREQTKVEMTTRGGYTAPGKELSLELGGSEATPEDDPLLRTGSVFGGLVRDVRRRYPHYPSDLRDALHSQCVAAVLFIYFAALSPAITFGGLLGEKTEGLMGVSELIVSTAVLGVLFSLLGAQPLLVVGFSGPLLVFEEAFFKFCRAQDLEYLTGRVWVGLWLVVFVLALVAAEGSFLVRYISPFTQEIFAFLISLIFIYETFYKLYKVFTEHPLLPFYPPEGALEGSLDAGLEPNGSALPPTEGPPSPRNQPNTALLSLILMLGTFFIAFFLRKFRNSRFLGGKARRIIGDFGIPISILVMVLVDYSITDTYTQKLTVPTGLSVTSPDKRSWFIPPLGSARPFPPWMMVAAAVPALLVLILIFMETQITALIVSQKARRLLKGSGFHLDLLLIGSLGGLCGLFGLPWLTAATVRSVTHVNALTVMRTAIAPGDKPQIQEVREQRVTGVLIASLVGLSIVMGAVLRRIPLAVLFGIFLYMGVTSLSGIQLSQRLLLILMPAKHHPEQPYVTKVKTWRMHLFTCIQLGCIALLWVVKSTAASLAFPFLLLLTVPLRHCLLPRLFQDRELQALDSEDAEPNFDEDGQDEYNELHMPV
UniProt Q7Z2H8: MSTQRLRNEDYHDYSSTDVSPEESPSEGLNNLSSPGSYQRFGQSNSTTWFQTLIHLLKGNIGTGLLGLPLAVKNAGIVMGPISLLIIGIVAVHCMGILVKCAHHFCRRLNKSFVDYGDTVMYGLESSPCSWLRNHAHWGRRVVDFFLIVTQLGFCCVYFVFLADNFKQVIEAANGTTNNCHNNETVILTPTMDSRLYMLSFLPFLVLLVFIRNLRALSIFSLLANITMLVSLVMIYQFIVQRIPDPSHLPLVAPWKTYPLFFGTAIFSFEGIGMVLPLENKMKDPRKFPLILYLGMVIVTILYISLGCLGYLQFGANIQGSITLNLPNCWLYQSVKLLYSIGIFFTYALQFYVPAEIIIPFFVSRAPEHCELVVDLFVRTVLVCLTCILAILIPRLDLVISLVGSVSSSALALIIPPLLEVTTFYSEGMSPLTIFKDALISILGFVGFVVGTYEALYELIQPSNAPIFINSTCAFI
UniProt Q8NBI5: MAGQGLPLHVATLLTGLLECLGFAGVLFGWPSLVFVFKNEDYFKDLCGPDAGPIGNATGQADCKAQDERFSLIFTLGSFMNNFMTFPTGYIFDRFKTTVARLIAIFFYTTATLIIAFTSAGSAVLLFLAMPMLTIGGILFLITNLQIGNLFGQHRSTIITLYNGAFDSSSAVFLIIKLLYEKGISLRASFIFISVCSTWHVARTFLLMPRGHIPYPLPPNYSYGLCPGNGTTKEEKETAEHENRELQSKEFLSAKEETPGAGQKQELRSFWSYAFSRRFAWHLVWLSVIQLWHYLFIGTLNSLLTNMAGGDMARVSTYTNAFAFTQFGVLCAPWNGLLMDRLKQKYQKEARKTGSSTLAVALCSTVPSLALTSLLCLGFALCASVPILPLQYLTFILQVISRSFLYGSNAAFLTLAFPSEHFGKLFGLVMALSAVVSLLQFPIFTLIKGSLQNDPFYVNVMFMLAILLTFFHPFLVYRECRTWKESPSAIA
UniProt Q96A46: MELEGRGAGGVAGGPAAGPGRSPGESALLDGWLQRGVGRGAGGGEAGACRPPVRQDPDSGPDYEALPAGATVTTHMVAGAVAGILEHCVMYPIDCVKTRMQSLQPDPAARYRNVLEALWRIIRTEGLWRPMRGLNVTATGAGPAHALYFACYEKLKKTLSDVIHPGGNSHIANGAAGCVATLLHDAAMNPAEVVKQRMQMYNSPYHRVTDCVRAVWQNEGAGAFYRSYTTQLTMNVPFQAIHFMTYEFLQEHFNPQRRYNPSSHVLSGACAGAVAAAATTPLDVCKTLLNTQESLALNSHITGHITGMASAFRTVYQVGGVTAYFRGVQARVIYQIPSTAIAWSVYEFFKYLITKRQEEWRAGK
UniProt Q9HAB3: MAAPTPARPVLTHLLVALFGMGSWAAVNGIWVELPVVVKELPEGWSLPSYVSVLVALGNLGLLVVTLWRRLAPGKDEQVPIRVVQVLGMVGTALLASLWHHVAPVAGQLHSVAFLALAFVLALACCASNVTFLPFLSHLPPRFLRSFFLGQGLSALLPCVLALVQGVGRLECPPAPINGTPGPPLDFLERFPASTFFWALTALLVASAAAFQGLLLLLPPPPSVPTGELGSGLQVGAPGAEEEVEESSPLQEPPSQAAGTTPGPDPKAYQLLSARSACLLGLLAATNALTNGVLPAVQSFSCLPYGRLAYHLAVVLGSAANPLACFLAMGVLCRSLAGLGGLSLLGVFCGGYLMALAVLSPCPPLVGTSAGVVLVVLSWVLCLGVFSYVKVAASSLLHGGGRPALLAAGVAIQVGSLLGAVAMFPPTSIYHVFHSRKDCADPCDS
UniProt Q8N2U9: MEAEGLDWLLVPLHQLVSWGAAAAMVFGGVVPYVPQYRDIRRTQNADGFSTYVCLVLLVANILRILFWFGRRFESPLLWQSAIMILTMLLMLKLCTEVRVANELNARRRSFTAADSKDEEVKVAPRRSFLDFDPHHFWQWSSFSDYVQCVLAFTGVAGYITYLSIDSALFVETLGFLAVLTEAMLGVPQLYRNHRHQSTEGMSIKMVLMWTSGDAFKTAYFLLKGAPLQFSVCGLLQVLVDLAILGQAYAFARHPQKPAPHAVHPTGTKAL
UniProt Q9BRV3: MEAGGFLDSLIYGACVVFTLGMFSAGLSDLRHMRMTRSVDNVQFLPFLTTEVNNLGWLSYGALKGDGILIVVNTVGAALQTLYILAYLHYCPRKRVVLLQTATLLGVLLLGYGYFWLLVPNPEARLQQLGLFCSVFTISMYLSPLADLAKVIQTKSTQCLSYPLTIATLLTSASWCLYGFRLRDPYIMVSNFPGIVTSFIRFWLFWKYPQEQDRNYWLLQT

Columns and labels:
Assay in all cases: log2 fold change, soluble protein after heating vs DMSO (PISA); higher = thermal stabilisation; K562 cells, 10 uM, 30 min; active = over 0.2 and 3.5 SD of the protein, either way, in both replicates (recomputed)
crizotinib = compound: C[C@@H](Oc1cc(-c2cnn(C3CCNCC3)c2)cnc1N)c1c(Cl)ccc(F)c1Cl [crizotinib]
Procedure, shortened: (§1)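 For each measurement, 10 μM compound was applied for 30 min to K562 cells at 2×10^6 cells/mL. Aliquots were heated for 3 min across 48°C-58°C, pooled, and extracted in PBS with 0.5% NP-40 at 4°C; the supernatant after 21,000xg for 90 min was soluble protein. This was quantified by TMTpro 16plex LC-MS/MS with channel sums equalised, and thermal stability was reported relative to control samples from duplicates, on a log2 fold-change scale.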

[1] = compound: C[C@@H]1COCCN1C2=NC(=NC(=C2)C3(CC3)S(=O)(=O)C)C4=C5C=CNC5=CC=C4
Procedure, shortened: as §1

duvelisib = compound: C[C@H](Nc1ncnc2nc[nH]c12)c1cc2cccc(Cl)c2c(=O)n1-c1ccccc1 [duvelisib]
Procedure, shortened: as §1

tozasertib = compound: Cc1cc(Nc2cc(N3CCN(C)CC3)nc(Sc3ccc(NC(=O)C4CC4)cc3)n2)n[nH]1 [tozasertib]
Procedure, shortened: as §1

[2] = compound: Cc1cc(SCc2sc(-c3ccc(C(F)(F)F)cc3)nc2C)ccc1OCC(=O)O
Procedure, shortened: as §1

doramapimod = compound: Cc1ccc(-n2nc(C(C)(C)C)cc2NC(=O)Nc2ccc(OCCN3CCOCC3)c3ccccc23)cc1 [doramapimod]
Procedure, shortened: as §1

ispinesib = compound: Cc1ccc(C(=O)N(CCCN)[C@@H](c2nc3cc(Cl)ccc3c(=O)n2Cc2ccccc2)C(C)C)cc1 [ispinesib]
Procedure, shortened: as §1

bafetinib = compound: Cc1ccc(NC(=O)c2ccc(CN3CC[C@H](N(C)C)C3)c(C(F)(F)F)c2)cc1Nc1nccc(-c2cncnc2)n1 [bafetinib]
Procedure, shortened: as §1

nilotinib = compound: Cc1cn(-c2cc(NC(=O)c3ccc(C)c(Nc4nccc(-c5cccnc5)n4)c3)cc(C(F)(F)F)c2)cn1 [nilotinib]
Procedure, shortened: as §1

[3] = compound: Cc1nc(Nc2n[nH]c3c2CN(C(=O)N[C@H](CN(C)C)c2ccccc2)C3(C)C)c2sccc2n1
Procedure, shortened: as §1

dasatinib = compound: Cc1nc(Nc2ncc(C(=O)Nc3c(C)cccc3Cl)s2)cc(N2CCN(CCO)CC2)n1 [dasatinib]
Procedure, shortened: as §1

[4] = compound: Cc1ncc(-c2ccnc(Nc3ccc(S(C)(=O)=O)cc3)n2)n1C(C)C
Procedure, shortened: as §1

[5] = compound: Cn1cc(-c2ccc3nnc(C(F)(F)c4ccc5ncccc5c4)n3n2)cn1
Procedure, shortened: as §1

tipifarnib = compound: Cn1cncc1[C@@](N)(c1ccc(Cl)cc1)c1ccc2c(c1)c(-c1cccc(Cl)c1)cc(=O)n2C [tipifarnib]
Procedure, shortened: as §1

mubritinib = compound: FC(F)(F)c1ccc(/C=C/c2nc(COc3ccc(CCCCn4ccnn4)cc3)co2)cc1 [mubritinib]
Procedure, shortened: as §1

[6] = compound: C[C@H](C1=CC=C(C=C1)C(=O)NC2=C3C=CNC3=NC=C2)N
Procedure, shortened: as §1

gandotinib = compound: Cc1cc(Nc2cc(CN3CCOCC3)c3nc(C)c(Cc4ccc(Cl)cc4F)n3n2)n[nH]1 [gandotinib]
Procedure, shortened: as §1

[7] = compound: Cc1cccc(CC(=O)N2CCc3c2ccc(-c2cn(C)c4ncnc(N)c24)c3F)n1
Procedure, shortened: as §1

[8] = compound: Cn1cc(-c2ccc3c(c2)CCN3C(=O)Cc2cccc(C(F)(F)F)c2)c2c(N)ncnc21
Procedure, shortened: as §1

[9] = compound: CS(=O)(=O)c1ccc(-c2cnc(N)c(C(=O)Nc3ccccc3)n2)cc1
Procedure, shortened: as §1

Measured: log2 fold change

SLC3A2 (UniProt F5GZS6)
inactive: crizotinib 0.184 | [1] -0.084 | duvelisib -0.055 | tozasertib -0.149 | [2] -0.35 | doramapimod -0.237 | ispinesib 0.362 | bafetinib -0.241 | nilotinib 0.068 | [3] -0.116 | dasatinib 0.26 | [4] 0.041 | [5] -0.224 | tipifarnib 0.187 | mubritinib 0.135

SLC36A1 (UniProt E5RG64)
inactive: bafetinib -0.892

SLC25A29 (UniProt Q8N8R3)
inactive: crizotinib 0.014 | duvelisib 0.015 | tozasertib -0.08 | [2] 0.201 | doramapimod 0.074 | ispinesib -0.344 | dasatinib -0.032 | [5] 0.006 | tipifarnib -0.257

SLC1A3 (UniProt P43003)
inactive: [1] 0.167 | [6] -0.039 | gandotinib -0.042 | [2] 0.201 | ispinesib 0.126 | bafetinib -0.051 | [7] 0.013 | nilotinib 0.131 | [3] -0.063 | dasatinib -0.203 | [4] -0.077 | [8] 0.133 | [5] -0.009 | tipifarnib 0.054 | mubritinib 0.096

SLC2A4 (UniProt P14672)
inactive: [9] -0.077 | [6] -0.048 | gandotinib -0.048 | tozasertib -0.1 | ispinesib -0.22 | bafetinib -0.223 | [7] -0.023 | nilotinib 0.066 | [3] 0.126 | [4] 0.19 | [8] 0.004 | [5] -0.087 | tipifarnib -0.151 | mubritinib 0.084

SLC35G1 (UniProt Q2M3R5)
inactive: tozasertib 0.034

2 neighbouring records out of the list so far:
SLC2A4 (UniProt P14672)
inactive: [9] -0.077 | [6] -0.048 | gandotinib -0.048 | tozasertib -0.1 | ispinesib -0.22 | bafetinib -0.223 | [7] -0.023 | nilotinib 0.066 | [3] 0.126 | [4] 0.19 | [8] 0.004 | [5] -0.087 | tipifarnib -0.151 | mubritinib 0.084

SLC35G1 (UniProt Q2M3R5)
inactive: tozasertib 0.034

Further results follow:

SLC25A35 (UniProt Q3KQZ1)
inactive: crizotinib 0.116 | [6] 0.036 | duvelisib -0.046 | gandotinib 0.136 | tozasertib -0.043 | [2] -0.18 | doramapimod -0.076 | [7] -0.116 | dasatinib 0.054 | [8] 0.056 | tipifarnib 0.362

SLC39A1 (UniProt Q9NY26)
inactive: [6] 0.023 | gandotinib -0.137 | [7] 0.116 | [8] -0.17

SLC66A3 (UniProt Q8N755)
inactive: [9] -0.238 | [1] -0.223 | nilotinib -0.045 | [3] -0.211 | [4] 0.075 | mubritinib -0.108

SLC22A23 (UniProt A1A5C7)
inactive: crizotinib 0.042 | [6] -0.353 | duvelisib -0.164 | gandotinib 0.019 | [2] 0.265 | doramapimod 0.013 | ispinesib -0.096 | [7] -0.132 | dasatinib 0.081 | [8] 0.297 | [5] -0.014 | tipifarnib 0.171 | mubritinib -0.044

SLC22A5 isoform 3 (UniProt O76082)
inactive: crizotinib 0.256 | [1] -0.252 | gandotinib -0.088 | doramapimod -0.001 | bafetinib 0.272 | [7] 0.051 | nilotinib -0.046 | [3] -0.051 | [4] -0.022 | tipifarnib 0.002

SLC22A4 (UniProt Q9H015)
inactive: [1] 0.063 | [6] -0.121 | duvelisib 0.043 | tozasertib -0.054 | [2] -0.096 | ispinesib 0.043 | dasatinib 0.04 | [8] 0.14 | [5] -0.037 | tipifarnib 0.054

SLC35A5 (UniProt Q9BS91)
inactive: [1] -0.085 | [6] -0.02 | duvelisib 0.051 | tozasertib -0.035 | [2] 0.184 | dasatinib 0.03 | [8] 0.045

SLC35C2 isoform 3 (UniProt Q9NQQ7)
inactive: crizotinib -0.049 | [1] 0.08 | [6] 0.104 | doramapimod 0.097 | ispinesib 0.039 | bafetinib -0.013 | nilotinib -0.181 | [3] 0.319 | [4] 0.077 | [8] -0.11 | [5] -0.029

SLC10A3 (UniProt P09131)
inactive: [1] 0.028 | tozasertib -0.092 | bafetinib -0.114 | nilotinib -0.041 | [3] -0.082 | [4] 0.041 | mubritinib -0.152

SLC25A14 isoform 3 (UniProt O95258)
inactive: crizotinib -0.043 | [6] -0.254 | duvelisib 0.002 | gandotinib -0.07 | tozasertib -0.025 | [2] -0.049 | doramapimod 0.034 | ispinesib -0.116 | bafetinib -0.094 | [7] 0 | nilotinib 0.042 | [3] -0.049 | dasatinib 0.069 | [4] -0.052 | [8] 0.074 | [5] -0.022 | tipifarnib 0.015 | mubritinib -0.009

SLC39A9 (UniProt Q9NUM3)
inactive: [6] 0.049 | tozasertib 0.031 | [8] 0.159

SLC4A3 isoform 3 (UniProt P48751)
inactive: bafetinib 0.072 | nilotinib -0.198 | [3] 0.044 | [4] -0.205 | mubritinib 0.06

SLC35D1 (UniProt Q9NTN3)
inactive: [6] -0.191 | tozasertib 0.045 | [8] 0 | tipifarnib -0.273

SLC36A4 (UniProt Q6YBV0)
inactive: [1] -0.439 | ispinesib 0.196 | bafetinib 0.025 | [5] -0.145 | mubritinib 0.234

SLC26A2 (UniProt P50443)
inactive: crizotinib 0.051 | [1] 0.059 | duvelisib -0.174 | gandotinib -0.091 | [2] 0.06 | doramapimod 0.084 | [7] -0.286 | nilotinib 0.129 | [3] 0.083 | dasatinib -0.081 | [4] 0.107 | mubritinib -0.048

SLC36A1 (UniProt Q7Z2H8)
inactive: crizotinib 0.133 | duvelisib 0.239 | [2] 0.017 | doramapimod 0.075 | dasatinib 0.035 | mubritinib -0.087

SLC43A3 (UniProt Q8NBI5)
inactive: [9] 0.098 | [1] 0.24 | tipifarnib 0.009

SLC26A11 (UniProt I3L0N9)
inactive: bafetinib 0.094

SLC25A28 (UniProt Q96A46)
inactive: [9] -0.012 | bafetinib -0.001 | nilotinib -0.207 | [3] 0.014 | [4] 0.079 | tipifarnib 0.141

SLC35E3 (UniProt Q7Z769)
inactive: [9] -0.276 | [1] 0.244 | duvelisib 0.123 | tozasertib 0.003 | [2] 0.067 | nilotinib -0.164 | [3] -0.103 | dasatinib -0.198 | [4] 0.055 | tipifarnib 0.163

SLC52A2 (UniProt Q9HAB3)
inactive: gandotinib 0.056 | tozasertib 0.229 | bafetinib 0.074 | [7] 0.277 | nilotinib 0.079 | [3] 0.014 | [4] -0.02 | mubritinib 0

SLC46A1 (UniProt Q96NT5)
inactive: [6] -0.047 | gandotinib -0.006 | [7] -0.016 | [8] -0.119

SLC6A19 (UniProt Q695T7)
inactive: [6] -0.053 | duvelisib 0.156 | [2] -0.062 | dasatinib -0.014 | [8] -0.16 | tipifarnib 0.119 | mubritinib 0.093

SLC66A2 (UniProt Q8N2U9)
inactive: [1] 0.136 | bafetinib -0.126 | nilotinib -0.049 | [3] 0.205 | [4] -0.057 | mubritinib -0.344

SLC3A2 (UniProt F5H867)
inactive: [9] -0.024 | [1] 0.094 | duvelisib 0.097 | gandotinib -0.181 | tozasertib -0.114 | [2] -0.175 | bafetinib -0.078 | [7] -0.198 | nilotinib -0.122 | [3] -0.213 | dasatinib 0.053 | [4] -0.182 | tipifarnib 0.058 | mubritinib 0.088

SLC35C1 (UniProt Q96A29)
inactive: crizotinib -0.044 | [1] -0.365 | [6] 0.036 | duvelisib 0.042 | gandotinib -0.048 | tozasertib 0.04 | [2] 0.074 | doramapimod 0.016 | ispinesib -0.114 | bafetinib -0.002 | [7] -0.062 | nilotinib -0.003 | [3] 0.085 | dasatinib 0.067 | [4] -0.16 | [8] 0.043 | [5] -0.089 | tipifarnib 0.061

SLC35E1 (UniProt Q96K37)
inactive: crizotinib -0.099 | [1] 0.019 | [6] -0.021 | duvelisib 0.034 | gandotinib -0.135 | tozasertib 0.061 | [2] -0.069 | doramapimod 0.4 | ispinesib 0.035 | bafetinib 0.029 | [7] 0.063 | nilotinib 0.004 | [3] -0.035 | dasatinib -0.003 | [4] 0.007 | [8] -0.122 | [5] -0.003 | tipifarnib -0.051 | mubritinib 0.031

SLC15A4 (UniProt Q8N697)
inactive: crizotinib -0.169 | [6] -0.184 | duvelisib -0.071 | tozasertib 0.078 | [2] -0.104 | doramapimod -0.063 | ispinesib -0.268 | bafetinib -0.041 | nilotinib -0.032 | [3] -0.023 | dasatinib 0.12 | [4] 0.167 | [8] 0.079 | [5] 0.029 | tipifarnib 0.092 | mubritinib -0.164

SLC50A1 (UniProt Q9BRV3)
inactive: crizotinib 0 | duvelisib 0.391 | [2] -0.389 | doramapimod -0.011 | ispinesib -0.209 | bafetinib -0.28 | dasatinib 0.542 | [5] -0.073 | tipifarnib 0.238 | mubritinib 0.002
